According to PubChem BioAssay (NCATS):
Several values for one entry are separate records, joined by “and”; a condition that tells them apart may be missing. Equal entries are not always repeated. The inconclusive results got no clear call from the source; some entries with a clear call stand among them for comparison. Where the call is inconclusive, the potency comes from a doubtful curve fit. More than one record can exist for a structure, and the calls need not agree. Activity calls are given as the source filed them. Unless noted, the call rests on the fitted dose curve; in most records, active means well fitted curve in the direction sought with a large enough effect; inconclusive means small, poorly fitted or top-dose-only effect, or another doubt; inactive means no such curve, though single readings can be large; an effect the other way counts as inactive or inconclusive.

Experiments:
[1] = Quantitative High-Throughput drug screen in 47 multiple myeloma cell lines against the NCATS MIPE library collection: UTMC2_PLB cell viability assay (AID 1919868); conditions: CellTiter-Glo ATP luminescence, 48 h; viability (% of DMSO control): at 45.8 µM (top of the series); further: nearly all actives have a fitted effect of over 55% in size
How it was run: (§1)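 500 cells/well; MIPE 4.0 drugs pin-transferred; 48 h, 37C, 5% CO2. CellTiter-Glo, 5 min RT, luminescence. Controls: DMSO 100%, media 0%.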

[2] = Quantitative High-Throughput drug screen in 47 multiple myeloma cell lines against the NCATS MIPE library collection: PCM6_Riken cell viability assay (AID 1919870); conditions: CellTiter-Glo ATP, 48 h; viability (% of control): at 45.8 µM (top of the series); further: nearly all actives have a fitted effect of over 30% in size
How it was run: as §1

[3] = Quantitative High-Throughput drug screen in 47 multiple myeloma cell lines against the NCATS MIPE library collection: RPMI8226_ATCC cell viability assay (AID 1919871); conditions: RPMI8226 myeloma viability, CellTiter-Glo ATP luminescence, 48 h; series mostly up to 45.8 µM; further: nearly all actives have a fitted effect of over 30% in size
How it was run: as §1

[4] = qHTS for identification of novel therapeutic agents for treatment of microphthalmiaassociated transcription factor (MiT) renal cell carcinoma (RCC) (AID 1963991; calls by dose curve); conditions: TFE3-RCC UOK109 viability, CellTiter-Glo, 48 h; active = Z-AUC below -0.8 in all three lines
How it was run: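 Three TFE3-fusion RCC cell lines (UOK109, UOK124, UOK145), 500 cells/well, were exposed to the 1912-compound MIPE 4.0 library for 48 hours at 37 C. Viability was read by CellTiter-Glo luminescence, normalised to DMSO (100%) and empty wells (0%), with 11-concentration curve fits.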

HEK293 = assay: Cytotoxic Profiling of Annotated Libraries Using Quantitative High-Throughput Screening (AID 1296008); conditions: Five cell lines viability, CellTiter-Glo ATP luminescence, 48-72 h; max response: active compounds read low; further: nearly all actives have a fitted effect of over 60% in size; on max response: on the % scale 0 is the no-effect control and ±100 the full control effect
How it was run: (§2)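 Cells exposed to compounds for 48 or 72 hr at 37 degrees Celsius. Viability read as ATP-coupled luminescence with CellTiter-Glo after 10 min at room temperature.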

NIH3T3 = assay: as above; conditions: Five cell lines viability, CellTiter-Glo ATP luminescence, 48-72 h; max response: active compounds read low
How it was run: as §2

[5] = Quantitative High-Throughput drug screen in 47 multiple myeloma cell lines against the NCATS MIPE library collection: PE2_PLB cell viability assay (AID 1919869); conditions: PE2_PLB myeloma cells viability, ATP luminescence, 48 h; series mostly up to 45.8 µM; further: nearly all actives have a fitted effect of over 35% in size
How it was run: as §1

[6] = Quantitative High-Throughput drug screen in 47 multiple myeloma cell lines against the NCATS MIPE library collection: OPM2_DSMZ cell viability assay (AID 1919872); conditions: OPM2 myeloma viability, CellTiter-Glo ATP luminescence, 48 h; series mostly up to 45.8 µM; further: nearly all actives have a fitted effect of over 30% in size
How it was run: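 We plated 500 myeloma cells per well, pinned in MIPE 4.0 compounds, and incubated for 48 hours at 37C. ATP was then quantified with CellTiter-Glo, with DMSO and media-only wells defining 100% and 0%.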

[7] = Quantitative High-Throughput drug screen in 47 multiple myeloma cell lines against the NCATS MIPE library collection: KMS11_JCRBsus cell viability assay (AID 1919873); conditions: KMS11 myeloma viability, CellTiter-Glo ATP luminescence, 48 h; series mostly up to 45.8 µM; further: nearly all actives have a fitted effect of over 50% in size
How it was run: as §1

[8] = Quantitative High-Throughput drug screen in 47 multiple myeloma cell lines against the NCATS MIPE library collection: KMS28BM_JCRB cell viability assay (AID 1919874); conditions: CellTiter-Glo ATP, 48 h; series mostly up to 45.8 µM; further: nearly all actives have a fitted effect of over 35% in size
How it was run: as §1

MCC-13 = assay: qHTS assay to identify novel small-molecules to repurpose for Merkel cell carcinoma treatment (AID 1296009); conditions: MCC and control cell lines, CellTiter-Glo viability, 72 h; series mostly up to 46 µM; further: nearly all actives have a fitted effect of over 60% in size
How it was run: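 CellTiter-Glo luminescence after 72 hr compound exposure at 37 degree celsius gave cell viability. Libraries NPC and MIPE were run as 8- and 11-point dose responses; RLUs normalized to DMSO (negative) and no-cell (cytotoxicity) controls.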
Potency means the concentration at half of the fitted maximal effect.

Cc1cccc(-c2nn(C(=S)Nc3ccccc3)cc2-c2ccnc3ccccc23)n1
inactive: Potency [3]
inconclusive: Potency [1] 1.05 µM [cytotoxic, full curve, poor fit] | Potency [2] 3.72 µM [cytotoxic, full curve, poor fit] | Potency [4] 20.9 µM [falling, partial curve, poor fit] | Potency (HEK293) 16.6 µM [inhibitor, partial curve] | Potency (NIH3T3) 3.32 µM [inhibitor, partial curve]

COc1nccc(-c2c(-c3ccc(F)cc3)ncn2C2CCNCC2)n1
inactive: Potency [6]
inconclusive: Potency [1] 0.059 µM [rising, full curve, poor fit] | Potency [5] 5.26 µM [cytotoxic, partial curve, poor fit] | Potency [2] 1.18 µM [cytotoxic, full curve, poor fit] | Potency [7] 8.33 µM [cytotoxic, partial curve, poor fit] | Potency [4] 1.87 µM [falling, full curve] | Potency (NIH3T3) 29.1 µM [inhibitor, partial curve, poor fit]
active: Potency [8] 0.469 µM | Potency (HEK293) 3.32 µM

NS(=O)(=O)c1ccc(NC2=CC(=O)c3ccccc3C2=O)cc1
inactive: Potency [3] | Potency [8]
inconclusive: Potency [1] 26.4 µM [cytotoxic, partial curve, poor fit] | Potency [7] 0.743 µM [cytotoxic, full curve] | Potency [4] 2.96 µM [falling, partial curve, poor fit] | Potency (HEK293) 29.6 µM [inhibitor, single point] | Potency (MCC-13) 3.72 µM [inhibitor, full curve]

CC(C)C1CCC(C(=O)N[C@H](Cc2ccccc2)C(=O)O)CC1 (stereo partly specified)
inconclusive: Potency [1] 0.0012 µM [rising, full curve, poor fit]
inactive: Potency [2] | max response (HEK293) -0.795% and -11.5% | max response (NIH3T3) 0.816% and -0.595%

Reprinted at random: 2 entries already listed, in no set order.
NS(=O)(=O)c1ccc(NC2=CC(=O)c3ccccc3C2=O)cc1
inactive: Potency [3] | Potency [8]
inconclusive: Potency [1] 26.4 µM [cytotoxic, partial curve, poor fit] | Potency [7] 0.743 µM [cytotoxic, full curve] | Potency [4] 2.96 µM [falling, partial curve, poor fit] | Potency (HEK293) 29.6 µM [inhibitor, single point] | Potency (MCC-13) 3.72 µM [inhibitor, full curve]

COc1nccc(-c2c(-c3ccc(F)cc3)ncn2C2CCNCC2)n1
inactive: Potency [6]
inconclusive: Potency [1] 0.059 µM [rising, full curve, poor fit] | Potency [5] 5.26 µM [cytotoxic, partial curve, poor fit] | Potency [2] 1.18 µM [cytotoxic, full curve, poor fit] | Potency [7] 8.33 µM [cytotoxic, partial curve, poor fit] | Potency [4] 1.87 µM [falling, full curve] | Potency (NIH3T3) 29.1 µM [inhibitor, partial curve, poor fit]
active: Potency [8] 0.469 µM | Potency (HEK293) 3.32 µM

Further entries.

CCC[C@H](N[C@@H](C)C(=O)N1[C@@H]2CCCC[C@H]2C[C@H]1C(=O)O)C(=O)OCC
inactive: Potency [8] | Potency (MCC-13)
inconclusive: Potency [5] 4.69 µM [cytotoxic, partial curve, poor fit] | Potency [6] 0.0012 µM [cytotoxic, full curve, poor fit] | Potency (HEK293) 23.5 µM [inhibitor, single point]
active: Potency [1] 1.32 µM

C=CCc1cc(OC)c(O)c(C(=O)NCCO)c1
inactive: Potency [8] | Potency (MCC-13)
inconclusive: Potency [1] 10.5 µM [cytotoxic, full curve, poor fit] | Potency [2] 0.0021 µM [rising, full curve, poor fit] | Potency [3] 2.09 µM [cytotoxic, partial curve, poor fit] | Potency (HEK293) 11.8 µM [inhibitor, single point]

C[C@]1(c2nc3c(C(N)=O)cccc3[nH]2)CCCN1
inactive: Potency [6] | max response (HEK293) -23.2%
inconclusive: Potency [1] 11.8 µM [cytotoxic, full curve, poor fit] | Potency [5] 26.4 µM [cytotoxic, single point] | Potency [2] 16.6 µM [cytotoxic, partial curve] | Potency [3] 0.001 µM | Potency [7] 33.2 µM [cytotoxic, single point] | Potency [8] 33.2 µM [cytotoxic, single point] | Potency [4] 20.9 µM [falling, partial curve]

COc1cc(C(C)=O)ccc1OCCCN1CCC(c2noc3cc(F)ccc23)CC1
inconclusive: Potency [5] 20.9 µM [cytotoxic, single point] | Potency [7] 37.2 µM [cytotoxic, single point] | Potency [4] 20.9 µM [falling, partial curve, poor fit] | Potency (HEK293) 29.9 µM [inhibitor, single point] | Potency (MCC-13) 37.2 µM [inhibitor, partial curve, poor fit]

O=C1Nc2ccc(Cl)cc2C(C#CC2CC2)(C(F)(F)F)O1 (stereo unspecified)
inconclusive: Potency [1] 20.9 µM [cytotoxic, partial curve, poor fit] | Potency [3] 18.7 µM [cytotoxic, partial curve] | Potency [6] 33.2 µM [cytotoxic, single point]
inactive: max response (HEK293) -29.6% | Potency (MCC-13)
active: Potency [8] 20.9 µM

Cc1cnc(C(=O)O)c[n+]1[O-]
inconclusive: Potency [3] 0.148 µM [cytotoxic, full curve, poor fit] | Potency [6] 18.7 µM [cytotoxic, partial curve, poor fit]
inactive: Potency [1] | outcome (HEK293) | max response (NIH3T3) -3.95%

COc1c(N2CCNC(C)C2)c(F)cc2c(=O)c(C(=O)O)cn(C3CC3)c12 (stereo unspecified)
inactive: Potency [2]
inconclusive: Potency [1] 0.187 µM [rising, full curve, poor fit] | Potency [5] 0.0066 µM [rising, full curve, poor fit] | Potency (HEK293) 37.2 µM [inhibitor, single point]

Clc1ccc(C(Cn2ccnc2)OCc2ccsc2Cl)c(Cl)c1 (stereo unspecified)
inconclusive: Potency [1] 33.2 µM [cytotoxic, partial curve, poor fit] | Potency [3] 23.5 µM [cytotoxic, partial curve, poor fit] | Potency [6] 16.6 µM [cytotoxic, partial curve, poor fit] | Potency [8] 14.8 µM [cytotoxic, partial curve] | Potency [4] 37.2 µM | Potency (HEK293) 29.6 µM [inhibitor, single point] | Potency (NIH3T3) 26.6 µM [inhibitor, single point] and 37.2 µM [inhibitor, single point]

O=C(O)[C@H]1O[C@H](Oc2cc3oc(-c4ccccc4)cc(=O)c3c(O)c2O)[C@H](O)[C@@H](O)[C@H]1O
inactive: Potency [1] | Potency (MCC-13)
inconclusive: Potency [2] 1.32 µM [cytotoxic, full curve, poor fit] | Potency [6] 20.9 µM [cytotoxic, partial curve] | Potency [7] 23.5 µM [cytotoxic, partial curve, poor fit] | Potency [8] 29.6 µM [cytotoxic, partial curve, poor fit] | Potency [4] 13.2 µM | Potency (HEK293) 33.2 µM [inhibitor, single point]
active: Potency [3] 4.69 µM

CC(C)C[C@H](CC(=O)O)C(=O)N[C@@H](Cc1c[nH]c2ccccc12)C(=O)N[C@@H](C)c1ccccc1
inactive: Potency [1] | Potency [6] | Potency [7]
inconclusive: Potency [3] 0.418 µM [rising, full curve, poor fit] | Potency [8] 1.32 µM [rising, partial curve] | Potency (HEK293) 3.72 µM [inhibitor, full curve, poor fit] | Potency (NIH3T3) 3.32 µM [inhibitor, full curve]

NC(=O)[C@@H](CCC(F)(F)F)N(Cc1ccc(-c2ncon2)cc1F)S(=O)(=O)c1ccc(Cl)cc1
inconclusive: Potency [1] 6.62 µM [cytotoxic, partial curve, poor fit] | Potency [5] 16.6 µM [cytotoxic, partial curve] | Potency [2] 20.9 µM [cytotoxic, single point] | Potency [3] 37.2 µM [cytotoxic, single point] | Potency [4] 5.26 µM | Potency (HEK293) 26.4 µM [inhibitor, single point]

CN[C@@H](C)[C@H]1[C@H](O)C[C@@]2(C)[C@@H]3CC[C@H]4C(C)(C)[C@@H](NC)CC[C@@]45C[C@@]35CC[C@]12C
inconclusive: Potency [1] 0.0118 µM [rising, full curve, poor fit] | Potency [2] 16.6 µM [cytotoxic, partial curve, poor fit] | Potency [7] 0.0037 µM [rising, full curve, poor fit] | Potency [4] 18.7 µM | Potency (HEK293) 37.2 µM [inhibitor, single point] and 5.31 µM [inhibitor, single point]
inactive: Potency (MCC-13)

CCCCC(C)(C)[C@H](O)C=C[C@H]1[C@H](O)CC(=O)[C@H]1CC=CCCCC(=O)O
inactive: Potency [8]
inconclusive: Potency [1] 23.5 µM [rising, partial curve, poor fit] | Potency [5] 14.8 µM [cytotoxic, partial curve] | Potency [6] 26.4 µM [cytotoxic, single point] | Potency [7] 18.7 µM [cytotoxic, partial curve] | Potency [4] 0.00166 µM | Potency (HEK293) 37.2 µM [inhibitor, single point] | Potency (NIH3T3) 33.2 µM [inhibitor, single point]

NS(=O)(=O)c1cc2c(cc1Cl)NCNS2(=O)=O
inactive: Potency [3] | outcome (HEK293)
inconclusive: Potency [1] 33.2 µM [cytotoxic, single point] | Potency [5] 23.5 µM [cytotoxic, single point] | Potency [2] 11.8 µM [cytotoxic, full curve] | Potency [8] 0.0743 µM [rising, full curve, poor fit]
